Experimental data: PubChem BioAssay AID602313 (National Center for Advancing Translational Sciences (NCATS), 2012)
Among all 390,000 compounds or so, about 760 (0.19%) were called active. Inconclusive means that the source gave no clear call. Such entries were picked first, then a sample of the others. The call rests on the fitted dose curve; in most records, active means well fitted inhibition curve with a large enough effect; inconclusive means small, poorly fitted or top-dose-only effect; inactive means flat fitted curve, though single readings scatter. A potency beside an inconclusive call is a rough fit, not a confirmed value.

Assay: qHTS for Inhibitors of Vif-A3F Interactions: qHTS; further: nearly all actives have a fitted effect of over 65% in size
Details: HeLa A3F-eYFP + Vif (tagged APOBEC3F with the HIV-1 protein that degrades it), YFP fluorescence increase; series mostly up to 46.1 µM
In short: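 HeLa cells stably expressing A3F-eYFP plus Vif, plated and incubated overnight at 37 deg C, then exposed to compounds overnight at 37 deg C. Blocked degradation read as raised yellow fluorescence (Ex 488/Em 500-530).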
Potency means the concentration at half of the fitted maximal effect.

SMILES	Potency
COc1ccc(S(=O)(=O)Nc2ccccc2)cc1	inconclusive: 12.6 µM [inhibitor, partial curve, poor fit]
CCCCCCSc1cccc(-c2nc3cc(C)ccn3c2NCc2ccccc2)c1	inconclusive: 22.4 µM [inhibitor, single point]
Cc1onc(-c2ccccc2Cl)c1C(=O)Nc1cccc(S(=O)(=O)NC2=NCCC2)c1	inconclusive: 2.51 µM [inhibitor, partial curve, poor fit]
Cc1cccc(/N=C2/NC(=O)C(Cc3ccccc3)S2)n1 (configuration not stated)	inactive
COc1ccc(/C=N/NC(=S)N[C@H]2CC3CCC2C3)cc1 (some centres not stated)	inconclusive: 5.01 µM [inhibitor, full curve, poor fit]
O=S(=O)(Nc1nc2ccccc2nc1Nc1cccc(S(=O)(=O)N2CCCCC2)c1)c1ccccc1	active: 10 µM
O=C(O)c1cccc(-c2ccc(/C=c3/sc4nc5ccccc5n4c3=O)o2)c1	inconclusive: 17.8 µM [inhibitor, partial curve, poor fit]
CC(C)(C)c1ccc(O)c(O)c1	inactive
CSc1cccc(-n2cc(-c3ccc4c(c3)OCO4)[nH]c2=O)c1	inactive
CC(=O)Nc1ccc(S(=O)(=O)NC2(C(F)(F)F)NC(=O)N(c3ccc(C)cc3)C2=O)cc1 (configuration not stated)	inconclusive: 0.562 µM [inhibitor, partial curve, poor fit]
COc1ccc(NCC(=O)Nc2ccc(Br)cc2F)c(OC)c1	inconclusive: 0.562 µM [inhibitor, full curve, poor fit]
O=C(CCN1C(=O)/C(=C/c2ccccc2Cl)SC1=S)Nc1ccccc1C(=O)O	inactive
CC1=CC(C)(C)Nc2ccc(OC(=O)CN3C(=O)c4cccc5cccc(c45)C3=O)cc21	inconclusive: 15.8 µM [inhibitor, partial curve, poor fit]
O=C(Nc1cc(Cl)cc(Cl)c1)c1ccc(F)c(S(=O)(=O)NC2CCCC2)c1	inconclusive: 22.4 µM [inhibitor, single point]
O=C(CSc1nnc(C2CC2)n1-c1ccccc1)NCCc1ccccc1	inactive
COC(=O)c1ccccc1NC(=O)Cn1cc(S(=O)(=O)Cc2ccccc2F)c2ccccc21	inactive
CCN(CC)c1ccc(NC(=O)c2ccccc2F)cc1S(=O)(=O)Nc1ccccc1OC	inactive
COc1ccccc1Nc1nn2c(=O)c3ccc(C(=O)NCc4cccs4)cc3nc2s1	inconclusive: 0.562 µM [inhibitor, full curve, poor fit]
Cc1ccc2c(=O)c(C(=O)c3ccc(F)cc3)cn(CC(=O)NCc3ccccc3)c2n1	inconclusive: 28.2 µM [inhibitor, single point]
Cc1cc(C)cc(NC(=O)/C=C/c2ccc([N+](=O)[O-])s2)c1	active: 11.2 µM
O=c1[nH]c(Nc2ccc(F)cc2)cc2ccccc12	inactive
O=C(N/N=C/c1ccc([N+](=O)[O-])o1)c1ccc(NS(=O)(=O)c2cccs2)cc1	inconclusive: 7.94 µM [inhibitor, partial curve, poor fit]
CCOc1ccccc1NC(=S)NC(=O)C1CC1	inconclusive: 35.5 µM [inhibitor, single point]

Shown as comma-separated lines: part of the list above.
SMILES,Potency
COc1ccc(S(=O)(=O)Nc2ccccc2)cc1,"inconclusive: 12.6 µM [inhibitor, partial curve, poor fit]"
CCCCCCSc1cccc(-c2nc3cc(C)ccn3c2NCc2ccccc2)c1,"inconclusive: 22.4 µM [inhibitor, single point]"
Cc1onc(-c2ccccc2Cl)c1C(=O)Nc1cccc(S(=O)(=O)NC2=NCCC2)c1,"inconclusive: 2.51 µM [inhibitor, partial curve, poor fit]"
Cc1cccc(/N=C2/NC(=O)C(Cc3ccccc3)S2)n1 (configuration not stated),inactive
COc1ccc(/C=N/NC(=S)N[C@H]2CC3CCC2C3)cc1 (some centres not stated),"inconclusive: 5.01 µM [inhibitor, full curve, poor fit]"
O=S(=O)(Nc1nc2ccccc2nc1Nc1cccc(S(=O)(=O)N2CCCCC2)c1)c1ccccc1,active: 10 µM

Next results.

SMILES	Potency
CC(C)NC(=O)CSc1nnc(CNC(=O)OC(C)(C)C)n1C	inconclusive: 35.5 µM [inhibitor, single point]
Cc1ccc2c(c1)nnn2C1CCN(C(=O)Nc2ccccc2C)CC1	inconclusive: 0.562 µM [inhibitor, full curve, poor fit]
COc1ccc(N=C2NC(=O)/C(=C/c3ccc(O)c(OC)c3)S2)cc1	inconclusive: 35.5 µM [inhibitor, single point]
CCN(CC)c1ccc(-c2nn3c(-c4ccccc4OC)nnc3s2)cc1	inconclusive: 1.26 µM [inhibitor, partial curve, poor fit]
COc1ccc(S(=O)(=O)Nc2ccccc2C(=O)N2CCCC2)cc1C	inconclusive: 22.4 µM [inhibitor, partial curve, poor fit]
CCOP(=O)(CC(C(C)=O)C(O)c1ccccc1)OCC (configuration not stated)	inactive
CCCC(=O)NC(c1ccccc1OC)c1ccc2cccnc2c1O (configuration not stated)	inconclusive: 3.98 µM [inhibitor, single point]
O=c1nc(N/N=C/c2ccccn2)cn[nH]1	inconclusive: 35.5 µM [inhibitor, single point]
CCOc1ccc(N2C(=O)S/C(=C\c3cccn3C)C2=O)cc1	inconclusive: 35.5 µM [inhibitor, single point]
O=[N+]([O-])/C(C(Cl)=C(Cl)Cl)=C(/NC1CC1)Sc1ccccc1	inconclusive: 35.5 µM [inhibitor, single point]
COc1ccc(OC)c2c(N3CC(C)OC(C)C3)cc(C(F)(F)F)nc12 (configuration not stated)	inactive
COc1ccc(CNC(=O)C(C#N)c2nc3ccccc3nc2N2CCCC2)cc1 (configuration not stated)	inconclusive: 3.16 µM [inhibitor, full curve, poor fit]
CC(Oc1cccc([N+](=O)[O-])c1)C(=O)NCCC1=CCCCC1 (configuration not stated)	inconclusive: 35.5 µM [inhibitor, single point]
O=C(Nc1ccccc1SC(=O)c1ccccc1)c1ccccc1	inconclusive: 35.5 µM [inhibitor, single point]
O=C(O)C(c1ccccc1)N1C(=O)/C(=C\c2ccc(-c3ccc(Br)cc3)o2)SC1=S (configuration not stated)	inconclusive: 5.62 µM [inhibitor, single point]
O=C(NCc1ccccc1)C1(c2cccc(F)c2)CCCC1	inconclusive: 35.5 µM [inhibitor, single point]
COc1ccc(Nc2ncc(C(=O)N3CCN(Cc4ccccc4)CC3)c3ccccc23)cc1	inactive
CN(NC(=S)Nc1ccc(OC(F)F)cc1)C(=S)Nc1ccc(OC(F)F)cc1	inconclusive: 35.5 µM [inhibitor, single point]
COc1cc(/C=C2\SC(c3ccc(C)cc3)=NC2=O)ccc1O	inactive
COc1cc(/C=C(/C#N)C(=O)NC(C)c2ccccc2)cc(OC)c1O (configuration not stated)	inconclusive: 15.8 µM [inhibitor, partial curve, poor fit]
C=CCN1C(=O)[C@@H]2Cc3c([nH]c4ccccc34)C(c3cc(OC)c(OC)c(OC)c3)N2C1=S (some centres not stated)	inconclusive: 3.16 µM [inhibitor, partial curve, poor fit]
CCOC(=O)c1cc(-c2ccccc2)sc1NC(=O)c1ccc(OC)c(OC)c1	inactive
CC(C)(C)C(=O)Nc1ccc(/C=C/C(=O)c2ccco2)cc1	inconclusive: 7.08 µM [inhibitor, full curve, poor fit]

SMILES	Potency
Cc1ccc2c(=O)cc(CSc3ccccc3)[nH]c2c1C	inconclusive: 25.1 µM [inhibitor, single point]
CN(C(=O)COC(=O)c1cn(-c2ccccc2)nc1-c1ccccc1)C1CCS(=O)(=O)C1 (configuration not stated)	inconclusive: 35.5 µM [inhibitor, single point]
Cc1nc(N/N=C/c2cccnc2)cc(N2CCOCC2)n1	inactive
Cc1[nH]c(N)nc(=S)c1CCCNc1ccccc1	inconclusive: 11.2 µM [inhibitor, partial curve, poor fit]
O=[N+]([O-])c1ccccc1S(=O)(=O)Nc1ccc(-c2ccc(N3CCOCC3)nn2)cc1	active: 12.6 µM
CC(C)N1CCN(Cc2ccc(OC3CCCC3)cc2)CC1CCO (configuration not stated)	inactive
CCn1c(SCC(=O)Nc2ccc(NC(C)=O)cc2)nc2c([nH]c3ccccc32)c1=O	inconclusive: 20 µM [inhibitor, partial curve, poor fit]
O=C(NC(=S)NNS(=O)(=O)c1ccccc1)c1ccc([N+](=O)[O-])cc1	inactive
O=[N+]([O-])c1ccc2c(c1)Nc1nc3ccccc3nc1N2	inconclusive: 35.5 µM [inhibitor, single point]
COc1ccccc1N(C(C)=O)C1=C(Cl)C(=O)c2ccccc2C1=O	inconclusive: 1.78 µM [inhibitor, full curve, poor fit]
COc1ccc(-c2nc(Cn3c(SCc4ccc(F)cc4)nc4ccncc43)c(C)o2)cc1OC	inconclusive: 35.5 µM [inhibitor, single point]
Cc1cccc(-c2noc(CCC(=O)NC3CCCC3)n2)c1	inconclusive: 6.31 µM [inhibitor, single point]
O=[N+]([O-])c1ccc(N2CCN(Cc3ccccc3)CC2)c2c1no[n+]2[O-]	inconclusive: 11.2 µM [inhibitor, partial curve, poor fit]
COc1cc(/C=C(\C#N)c2nc3ccc(C)cc3[nH]2)cc([N+](=O)[O-])c1O	inactive
CCn1c(=O)cc(SCC(=O)N2CCC(C)CC2)c2ccccc21	inactive
COc1ccc(N2CC(O)=C(c3nc4ccccc4s3)C2=N)cc1	inactive
CCCCNS(=O)(=O)c1ccc2nc(NC(=O)c3cccnc3)sc2c1	inconclusive: 15.8 µM [inhibitor, single point]
Cc1ccc2nc(N/N=C/c3ccco3)cc(C)c2c1	inconclusive: 35.5 µM [inhibitor, single point]
Cc1ccccc1C(=O)c1c[nH]c(C(=O)NCc2cccs2)c1	inactive
Cc1cccc(NC(=O)C2SC(=Nc3c(C)cccc3C)C(C(=O)N3CCOCC3)=C2N)c1 (configuration not stated)	inconclusive: 35.5 µM [inhibitor, single point]
O=C(CSc1ccc(Cl)cc1)NN=C1CCCCCC1	inconclusive: 17.8 µM [inhibitor, single point]
